Test results reported in US11098032B2, “Pyran dervatives as CYP11A1 (cytochrome P450 monooxygenase 11A1) inhibitors” (ORION CORPORATION, priority 2016, dated 2021).
Some results were stated once for a whole list of compounds, not compound by compound. At least one compound was matched to its structure with a doubt left.

Target: T1, CYP11A1 (Homo sapiens, UniProt P05108)
T1 construct: human H295R adrenocortical carcinoma cell line was used as source of enzyme; endogenous in cells; host or cells: H295R human adrenocortical carcinoma cells
T1 sequence (P05108 40-521): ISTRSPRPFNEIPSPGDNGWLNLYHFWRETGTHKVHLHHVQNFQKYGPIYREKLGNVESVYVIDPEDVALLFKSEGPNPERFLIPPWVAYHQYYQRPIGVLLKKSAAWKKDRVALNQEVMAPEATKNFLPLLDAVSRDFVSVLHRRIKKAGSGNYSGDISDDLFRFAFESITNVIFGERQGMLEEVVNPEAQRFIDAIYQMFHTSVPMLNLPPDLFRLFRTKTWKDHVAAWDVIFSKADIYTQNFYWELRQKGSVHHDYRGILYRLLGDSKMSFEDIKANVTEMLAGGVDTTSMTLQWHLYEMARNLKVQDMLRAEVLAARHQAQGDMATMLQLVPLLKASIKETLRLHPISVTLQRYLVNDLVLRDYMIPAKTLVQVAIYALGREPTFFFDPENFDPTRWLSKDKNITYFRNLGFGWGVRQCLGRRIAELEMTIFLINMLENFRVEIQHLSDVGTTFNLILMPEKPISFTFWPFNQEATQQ
Assay: CYP11A1 inhibition: modified isocaproic acid release assay (IARA) in H295R cells
Type: cell-based
Settings: human H295R adrenocortical carcinoma cells treated three days, 3 nM [24,25-3H]-labelled cholesterol, 1% DMSO, 10 concentrations in duplicates; read-out: IC50 of the test compounds on CYP11A1 inhibition
Method: The ability of the test compounds to inhibit conversion of cholesterole to pregnenolone and isocaproic acid was measured by modification of isocaproic acid release assay (IARA) described by Ruangwises et. al. (Biology of Reproduction 1991; 45(1):143-50) except that human H295R adrenocortical carcinoma cell line was used as source of enzyme and extraction was done with dextran-coated charcoal suspension (Isomaa, V. et al., Endocrinology 1982; 111(3):833-843). […] To determine the half maximal inhibitory concentration (IC50) of the test compounds on CYP11A1 inhibition, the cells were treated for three days with increasing concentrations of the test compounds in the presence of 3 nM [24,25-3H]-labelled cholesterol (American Radiolabelled Chemicals). The final DMSO concentration was 1%. Cell culture medium was extracted with dextran-coated charcoal suspension and the radiolabelled isocaproic acid was determined by mixing 100 μl of supernatant fraction in 200 μl of scintillation fluid (OptiPhase SuperMix, Perkin Elmer). Radioactivity was measured using a Microbeta scintillation counter (1450 MicroBeta Trilux, Wallac). All the test compounds were studied at 10 concentrations in duplicates.

Row | Compound | IC50
1 | CN(C)C(=O)n1cc(COc2coc(CN3Cc4ccccc4C3)cc2=O)nn1 [Compound 264, 4/5-(((6-(Isoindolin-2-ylmethyl)-4-oxo-4H-pyran-3-yl)oxy)methyl)-N,N-dimethyl-1H-1,2,3-triazole-1-carboxamide] | 301 to 2000 nM
2 | CN(C)C(=O)n1cc(COc2coc(CN3CCc4ccccc4C3)cc2=O)nn1 [Compound 265, 4/5-(((6-((3,4-Dihydroisoquinolin-2(1H)-yl)methyl)-4-oxo-4H-pyran-3-yl)oxy)methyl)-N,N-dimethyl-1H-1,2,3-triazole-1-carboxamide] | 301 to 2000 nM
